The values that follow come from PMC11381343.

Residue numbers refer to the chain shown, from its start. No constants are given. Whether binding was seen depends on the method and setting. For some of these results: Binding can be weak; no strength is given. Tags and fused reporters may be left off the sequences shown.

For experiment [1], the target named is T1, human RAP1 F336R with a C-terminal Flag-tag (human) (UniProt Q9NYB0).
T1 sequence: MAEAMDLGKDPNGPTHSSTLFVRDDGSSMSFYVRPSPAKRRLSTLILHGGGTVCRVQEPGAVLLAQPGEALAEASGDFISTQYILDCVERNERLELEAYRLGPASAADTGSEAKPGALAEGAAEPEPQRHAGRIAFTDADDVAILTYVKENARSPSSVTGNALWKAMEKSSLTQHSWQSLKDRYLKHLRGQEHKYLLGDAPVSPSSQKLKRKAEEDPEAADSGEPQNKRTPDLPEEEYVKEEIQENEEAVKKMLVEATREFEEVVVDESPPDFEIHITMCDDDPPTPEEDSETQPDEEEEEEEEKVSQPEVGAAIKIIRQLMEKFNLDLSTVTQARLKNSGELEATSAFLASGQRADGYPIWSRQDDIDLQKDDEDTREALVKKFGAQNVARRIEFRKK
Kind of experiment: pull-down; Flag-tagged RAP1 (2 μg) and His-tagged TRF2 (2 μg) in 30 μl buffer P (25 mM Tris-HCl pH 7.5, 10% glycerol, 0.5 mM EDTA, 0.01% Igepal, 1 mM DTT, 150 mM KCl) on ice 30 min; RAP1 captured on anti-Flag M2 resin at 4°C; Western blot for TRF2 and Flag; also at 300 mM KCl; both purified. (In western blotting, separated proteins are transferred to a membrane and probed.)

Experiment [2] has as its target T2, human RAP1 with a C-terminal Flag-tag (human) (UniProt Q9NYB0).
T2 sequence: T1 sequence with R336F
The experiment is described as above.

With His-tagged human TRF2, wild type, the binding entry in experiment [1] is “no binding (tested: 2 μg of each in 30 μl)”; in experiment [2], “binds”.

Turning to “His-tagged human TRF2 lacking the basic domain (domain or fragment)”, the binding result in experiment [2] is listed as “binds”.

As for His-tagged human TRF2 L288R, the binding result in experiment [2] is on record as “no binding (tested: 2 μg of each in 30 μl)”.
